The target in the assay is T1, Glial cell line-derived neurotrophic factor (GDNF) in RBL-2H3 cells (UniProt Q07731).
T1 sequence: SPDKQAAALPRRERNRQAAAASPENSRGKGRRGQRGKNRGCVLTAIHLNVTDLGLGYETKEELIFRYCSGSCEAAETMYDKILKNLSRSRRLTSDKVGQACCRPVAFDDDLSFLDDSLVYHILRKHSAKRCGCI
The experiment in a line: co-IP; cell lysates incubated overnight at 4 °C with magnetic beads bound to antibodies against GDNF or CaMKⅡ; beads washed five times with lysis buffer; SDS-PAGE and Western blot. A general note: In western blotting, separated proteins are transferred to a membrane and probed.

Results are given in words; binding and its absence hold for the method and conditions named. In cells and extracts the contact can be indirect. Some binding calls cover weakened binding; strength is not graded here.

The record followed here is article PMC12669010.

B1: GDNF family receptor α1 (GFRα1), in RBL-2H3 cells (receptor, UniProt Q62997 25-430)
chain: DRLDCVKASDQCLKEQSCSTKYRTLRQCVAGKETNFSLTSGLEAKDECRSAMEALKQKSLYNCRCKRGMKKEKNCLRIYWSMYQSLQGNDLLEDSPYEPVNSRLSDIFRAVPFISDVFQQVEHISKGNNCLDAAKACNLDDTCKKYRSAYITPCTTSMSNEVCNRRKCHKALRQFFDKVPAKHSYGMLFCSCRDIACTERRRQTIVPVCSYEERERPNCLSLQDSCKTNYICRSRLADFFTNCQPESRSVSNCLKENYADCLLAYSGLIGTVMTPNYVDSSSLSVAPWCDCSNSGNDLEDCLKFLNFFKDNTCLKNAIQAFGNGSDVTMWQPAPPVQTTTATTTTAFRVKNKPLGPAGSENEIPTHVLPPCANLQAQKLKSNVSGSTHLCLSDSDFGKDGLAGASS
As for B1, the binding result is given as “binds”.
